Experimental data taken from patent US7998710B2, “Process for purifying difructose dianhydride III” (Nippon Beet Sugar Mfg., Co., Ltd., priority 2003, dated 2011).

Assay: Sensory test for the respectively processed DFA III by 20 expert panelists
Settings: 20 panelists; for Oral sense of dissolution / Total evaluation: scale +2 good to -2 worse; for Sharpness of sweetness: scale +2 plain and simple to -2 over-rich; for Sweetness: scale +2 sweet to -2 not sweet
Method: Crystals of DFA III were finely pulverized with a mortar, to which water was added in an amount of 10 parts per 100 parts of DFA III, and the mixture was homogenized. This was granulated with an extrusion granulator (Fuji Powdal Co.; FINERYUZER, type EXR-60, performance 40-150 kg/hr) and dried at 70° C. with a blower-type thermostatic incubator (Yamato Science Co.; type DN910) for 3 hours to yield granular DFA III.
By 20 expert panelists, crystal DFA III; finely pulverized DFA III and granular DFA III were subjected to a sensory test.

[1] = granular DFA III evaluated to finely pulverized DFA III
[2] = finely pulverized DFA III evaluated to crystal DFA III

In the case of `OC[C@H]1O[C@@]2(CO[C@]3(CO)O[C@H](CO)[C@@H](O)[C@@H]3O2)[C@@H](O)[C@@H]1O` [granular DFA III], the “Oral sense of dissolution” value [1] is reported as “+0.5”, the Total evaluation [1] is reported as “+0.5” and the Sharpness of sweetness [1] is reported as “+0.2”. For the same molecule, the Sweetness [1] was “+0.1”.

For `OC[C@H]1O[C@@]2(CO[C@]3(CO)O[C@H](CO)[C@@H](O)[C@@H]3O2)[C@@H](O)[C@@H]1O` [finely pulverized DFA III], the “Oral sense of dissolution” value [2] was “+1.4”, the Total evaluation [2] was “+1.7” and the Sharpness of sweetness [2] was “+0.5”. For the same molecule, the Sweetness [2] was “+1.2”.
